Literature values in US20080242661A1, “Novel compounds useful for the treatment of degenerative & inflammatory diseases” (priority 2006, published 2008).
At least one compound was matched to its structure with a doubt left.

System: ATDC5 cells
Details: Nishigaki et al, 2002; cited from earlier work

C=CC[C@@H]1/C=C(\C)C[C@H](C)C[C@H](OC)[C@H]2O[C@@](O)(C(=O)C(=O)N3CCCC[C@H]3C(=O)O[C@H](/C(C)=C/[C@@H]3CC[C@@H](O)[C@H](OC)C3)[C@H](C)[C@@H](O)CC1=O)[C@H](C)C[C@@H]2OC [FK506]
chondrogenic differentiation and collagen II production: induce chondrogenic differentiation
